Reference: patent publication US20260199297A1, “FERROPTOSIS INDUCERS TO TREAT CANCER” (The University of Toledo, priority 2022, published 2026)
Some of these results come from one statement about several compounds together. For at least one compound, name, drawing or mass did not settle the structure.

System: NCI-H522 cells
Test: Live cell imaging, Kaplan-Meier cell survival analysis
Format: cell-based, human
Settings: 10 μM, Kaplan-Meier plot

SMILES | time to 50% cell death after treatment [h]
C#Cc1nc(C2=C(C)C(O)CC2)cs1 (racemic) [CETZOLE 1, 3-(2-Ethynylthiazol-4-yl)-2-methylcyclopent-2-en-1-ol, reference compound] | 4 to 5
COC(=O)c1ccc([C@@H]2c3[nH]c4ccccc4c3C[C@@H](C(=O)OC)N2C(=O)CCl)cc1 [RSL3, reference compound] | 3 to 4
